Source: patent US20130344073A1
Results are given in words; binding and its absence hold for the method and conditions named. Some results given as binding are weak or reduced against the parent protein; the word gives no strength. Each block holds one binder with its values, some of them ahead of it.

By UniProt entry, the sequences of proteins in these tests, tags left out. Where a name states a change or a piece, a line headed by the entry shows the natural chain unless it says otherwise.
UniProt P48740: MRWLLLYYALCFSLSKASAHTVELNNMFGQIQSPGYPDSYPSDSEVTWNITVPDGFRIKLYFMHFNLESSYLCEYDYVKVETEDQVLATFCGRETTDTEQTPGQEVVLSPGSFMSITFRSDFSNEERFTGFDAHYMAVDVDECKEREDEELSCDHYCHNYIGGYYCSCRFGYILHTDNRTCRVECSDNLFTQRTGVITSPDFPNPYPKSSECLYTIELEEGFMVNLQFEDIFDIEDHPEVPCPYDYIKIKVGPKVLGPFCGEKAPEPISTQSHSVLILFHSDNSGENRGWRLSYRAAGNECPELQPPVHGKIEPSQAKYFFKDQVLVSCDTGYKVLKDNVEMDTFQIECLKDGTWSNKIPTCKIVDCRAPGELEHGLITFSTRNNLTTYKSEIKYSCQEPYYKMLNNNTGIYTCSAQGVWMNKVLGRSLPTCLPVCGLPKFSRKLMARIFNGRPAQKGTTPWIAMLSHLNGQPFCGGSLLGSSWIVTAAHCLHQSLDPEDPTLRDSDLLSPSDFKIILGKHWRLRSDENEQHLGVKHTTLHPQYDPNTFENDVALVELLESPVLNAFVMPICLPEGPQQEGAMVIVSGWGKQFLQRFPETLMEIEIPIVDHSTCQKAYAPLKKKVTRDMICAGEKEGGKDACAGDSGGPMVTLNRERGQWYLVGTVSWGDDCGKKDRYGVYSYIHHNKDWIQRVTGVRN

Experiments:
human MASP-3 (human) [1] = assay: Saturation binding by flow cytometry: DTLacO cells expressing the antibody, stained with various concentrations of fluorescent-labeled soluble MASP-3 antigen
human MASP-3 (human) [2] = assay: FACS histogram of DTLacO cells displaying clone M3J5, stained with labeled MASP-3 antigen, against an IgG1-stained negative control
human MASP-3 (human) [3] = assay: FACS, DTLacO cells displaying the antibody stained with MASP-3 antigen
human MASP-3 (human) [4] = assay: FACS histogram of DTLacO cells displaying clone M3M1, stained with labeled MASP-3 antigen, against an IgG1-stained negative control
human MASP-3 (human) [5] = assay: DTLacO screens with CCP1-CCP2-SP fragments
human MASP-1 (human) = human MASP-1 (human) (UniProt P48740); assay: DTLacO screens with CCP1-CCP2-SP fragments

B3: clone D14 (antibody, human IgG1, V domains shown)
VH: AVTLDESGGGLQTPGGALSLVCKASGFTFSSYAMHWVRQAPGKGLEWVAGIYKSGAGTNYAPAVKGRATISRDNGQSTVRLQLNNLRAEDTGTYYCAKTTGSGCSSGYRAEYIDAWGHGTEVIVSS
VL: ALTQPASVSANPGETVKITCSGGGSYAGSYYYGWYQQKAPGSAPVTLIYYNNKRPSDIPSRFSGSLSGSTNTLTITGVRADDEAVYFCGSADNSGAAFGAGTTLTVL
binding (human MASP-3 (human) [5]): binds
binding (human MASP-1 (human)): binds

B4: clone 1E10 (antibody, human IgG1, V domains shown)
VH: AVTLDESGGGLQTPGGALSLVCKASGFTFSSYDMVWVRQAPGKGLEFVAGISRNDGRYTEYGSAVKGRATISRDNGQSTVRLQLNNLRAEDTATYYCARDAGGSAYWFDAGQIDAWGHGTEVIVSS
VL: B3 VL
binding (human MASP-3 (human) [5]): binds
binding (human MASP-1 (human)): binds

Next, values leading:

binding (human MASP-3 (human) [1]): binds
binding (human MASP-3 (human) [2]): binds
binding (human MASP-3 (human) [3]): binds
B1: MASP-3 specific clone M3J5 (antibody, V domains shown)
VH: AVTLDESGGGLQTPGGGLSLVCKASGFTFSSYAMGWMRQAPGKGLEYVAGIRSDGSFTLYATAVKGRATISRDNGQSTVRLQLNNLRAEDTATYFCTRSGNVGDIDAWGHGTEVIVSS
VL: ALTQPASVSANPGETVKITCSGGYSGYAGSYYYGWYQQKAPGSAPVTLIYYNNKRPSDIPSRFSGSLSGSTNTLTITGVRADDEAVYFCGSADNSGAAFGAGTTLTVL

binding (human MASP-3 (human) [3]): binds
binding (human MASP-3 (human) [4]): binds
B2: MASP-3 specific clone M3M1 (antibody, V domains shown)
VH: AVTLDESGGGLQTPGGGLSLVCKASGFDFSSYQMNWIRQAPGKGLEFVAAINRFGNSTGHGAAVKGRVTISRDDGQSTVRLQLSNLRAEDTATYYCAKGVYGYCGSYSCCGVDTIDAWGHGTEVIVSS
VL: B3 VL
